Measured values reported in patent US20040096894A1, “Crystal structures of P- selectin, P- and E-selectin complexes, and uses thereof” (priority 2000, published 2004).
For at least one compound, name, drawing or mass did not settle the structure. Square brackets hold non-standard residues; d marks the D form. Side chains are listed from the residue outwards. Peptide text beside a SMILES is read from it. * marks the point of attachment. Biotin = O=C1N[C@H]2[C@H](CS[C@H]2CCCCC(=O)*)N1; sY = N[C@@H](Cc1ccc(OS(=O)(=O)O)cc1)C(=O)O; pGlu = O=C1CC[C@@H](C(=O)O)N1; Ahx = NCCCCCC(=O)O

Biological target: T1, P-LE (lectin/EGF domains of P-selectin) (Homo sapiens, UniProt P16109)
T1 construct: The lectin-EGF (LE) domains (153 amino acids) of P-selectin (P-LE) and E-selectin (E-LE); IgG1 Fc (CH2-CH3 region) (C, cleaved yes); made in house; host or cells: CHO cells
T1 sequence (P16109 42-198): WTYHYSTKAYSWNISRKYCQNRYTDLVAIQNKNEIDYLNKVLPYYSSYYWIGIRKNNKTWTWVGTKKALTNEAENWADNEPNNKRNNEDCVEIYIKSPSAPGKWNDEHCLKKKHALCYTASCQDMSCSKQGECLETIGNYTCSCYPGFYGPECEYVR
Test: BIAcore surface plasmon resonance: solution-phase P-LE binding to immobilized sPSGL and PSGL-1 19ek peptides
Details: 25° C., HBS-P buffer with 1 mM each CaCl2 and MgCl2, SP-1 and GP-1 values are estimated, read-out: KD of P-LE for immobilized 19ek peptide
Description: FIGS. 1C-1-1C-6: Binding affinity determinations of solution-phase P-LE reacted with immobilized sPSGL and purified 19ek peptides by BIAcore analysis. First row, left-to-right: sPSGL (FIGS. 1C-1), SGP-3 (FIGS. 1C-2) and SGP-2 (FIGS. 1C-3). Second row, left-to-right: SGP-1 (FIGS. 1C-4), GP-1 (FIGS. 1C-5) and SP-1 (FIGS. 1C-6). P-LE at the indicated concentrations was reacted with immobilized ligands (to determine the total binding signal) and against control […] containing no ligand (to determine non-specific binding). The equilibrium responses (Req) at each concentration of P-LE are shown. At each P-LE concentration tested, specific binding signals (squares) were determined by subtracting non-specific responses (triangles) from total binding signals (diamonds). KDs and standard deviations (shown) were determined by line-fitting of specific binding curves using BIAevaluation software (BIAcore) and are the products of three-to-ten separate experiments. KD determinations using line-fitting agreed well with values determined by linear regression analysis of Scatchard plots (not shown).
P-LE/19ek Peptide Binding Studies. […] Glycosylated P-LE and E-LE, quantitated by experimentally determined extinction coefficients (280 nm), were injected over the19ek peptide, sPSGL and control surfaces at 40 μL/min. […]

For CSCC[C@H](NC(=O)[C@H](CCSC)NC(=O)[C@@H]1CCCN1C(=O)[C@H](CCCNC(=N)N)NC(=O)[C@@H]1CCCN1C(=O)[C@@H]1CCCN1C(=O)[C@H](CCC(=O)O)NC(=O)[C@@H](NC(=O)[C@H](CCC(=O)O)NC(=O)[C@@H]1CCCN1C(=O)[C@H](CC(C)C)NC(=O)[C@H](Cc1ccccc1)NC(=O)[C@H](CC(=O)O)NC(=O)[C@H](Cc1ccc(OS(=O)(=O)O)cc1)NC(=O)[C@H](CC(=O)O)NC(=O)[C@H](CC(C)C)NC(=O)[C@H](Cc1ccc(OS(=O)(=O)O)cc1)NC(=O)[C@H](CCC(=O)O)NC(=O)[C@H](Cc1ccc(OS(=O)(=O)O)cc1)NC(=O)[C@H](CCC(=O)O)NC(=O)[C@@H](NC(=O)[C@H](C)NC(=O)[C@@H]1CCC(=O)N1)[C@@H](C)O)[C@@H](C)O)C(=O)N[C@@H](CC(=O)O)C(=O)N[C@@H](CC(=O)O)C(=O)N[C@@H](CC(=O)O)C(=O)N[C@@H](CC(=O)O)C(=O)N[C@@H](CCCCNC(=O)CCCCCNC(=O)CCCC[C@@H]1SC[C@@H]2NC(=O)N[C@@H]21)C(=O)O [SP-1] ([pGlu]ATE[sY]E[sY]LD[sY]DFLPETEPPRPMMDDDDK([Ahx-Biotin])-OH; C-terminus assumed), which Kd is on record?
Its Kd is 113 µM.
